According to US6482410B1, “Cytotactin derivatives that stimulate attachment and neurite outgrowth, and methods of making same” (The Scripps Research Institute, priority 1994, dated 2002):

B1: CTfn3: CT:GST fusion protein, fibronectin type III repeat III, residues 774-864 of SEQ ID NO 4 (protein)
chain: LDAPSQIEAKDVTDTTALITWSKPLAEIEGIELTYGPKDVPGDRTTIDLSEDENQYSIGNLRPHTEYEYEVTLISRRGDMESDPAKEVFVT
modifications: left off: a dimerising Fc or GST
B2: CTfn6: CT:GST fusion protein, fibronectin type III repeat VI, residues 1318-1398 of SEQ ID NO 4 (protein)
chain: VVGSPKGISFSDITENSARVSWTPPRSRVDSYRVSYVPITGGTPNVVTVDGSKTRTKLVKLVPGVDYNVNIISVKGFEESE
modifications: left off: a dimerising Fc or GST

Experiment: Quantitation of 125I-labeled fusion protein bound to polystyrene dish
Details: fusion protein with trace 125I-labeled protein adsorbed to polystyrene

Row | Molecule | amount of fusion protein bound to the polystyrene dish [pmol/mm^2]
1 | B1 | 96
2 | B2 | 100
